Data on 3 sequences can be found in paper PMC12455474.

For at least one entry, the source does not settle the construct or the ends of the probe.

The subject of data set [1] is human alpha-thrombin (human). Briefly: binding assay. The following applies: Carriers (200 pM total) incubated with protein at 37 °C for 2 h; nanopore measurement in 100 mM KCl, 10 mM Tris-EDTA pH 8.0, -300 mV; commercial protein; folded or branched DNA.
The target in a further data set is PDGF-BB (human) (UniProt P01127). Briefly: binding assay. Particulars: Carriers (200 pM total) incubated with protein at 37 °C for 2 h; nanopore measurement in 100 mM KCl, 10 mM Tris-EDTA pH 8.0, -300 mV; recombinant protein; folded or branched DNA.

In the case of “AGTCCGTGGTAGGGCAGGTTGGGGTGACT [HD22 (29-mer)]”, the Kd in data set [1] stood at 3.5 nM.

Take “CACAGGCTACGGCACGTAGAGCATCACCATGATCCTGTG [PDGF 39-mer aptamer]”: the Kd with PDGF-BB (human) came to 0.1 nM.

In data set [1], GGTTGGTGTGGTTGG [HD1 (TBA, 15-mer)] registered a dissociation constant Kd of 20.2 nM.

A word on the Kd: it is the constant that tells how readily two partners part at equilibrium.
